These are yes or no findings as the source states them, for the method shown.
Tests used:
[1] = target: alkaline phosphatase from Sphingomonas sp. strain BSAR-1 (SPAP) (Sphingomonas sp. strain BSAR-1) (UniProt A1YYW7); assay: crystal structure; native SPAP crystals, space group P4(1)2(1)2, one molecule per asymmetric unit, dimer seen through crystal contacts; grown at 298 K in 1.6 M ammonium sulfate, 10% dioxane, 0.1 M MES pH 6.5; both purified
[2] = target: alkaline phosphatase from Sphingomonas sp. strain BSAR-1 (SPAP) (Sphingomonas sp. strain BSAR-1) (UniProt A1YYW7); assay: SEC; Superdex 200 10/300 GL, 20 mM Tris pH 8.0, 150 mM NaCl, 0.5 ml per minute; standards cytochrome-c, carbonic anhydrase, bovine serum albumin; both purified

B1: alkaline phosphatase from Sphingomonas sp. strain BSAR-1 (SPAP) (enzyme, UniProt A1YYW7 20-559)
chain: QSPAPAAAPAPAARSIAATPPKLIVAISVDQFSADLFSEYRQYYTGGLKRLTSEGAVFPRGYQSHAATETCPGHSTILTGSRPSRTGIIANNWFDLDAKREDKNLYCAEDESQPGSSSDKYEASPLHLKVPTLGGRMKAANPATRVVSVAGKDRAAIMMGGATADQVWWLGGPQGYVSYKGVAPTPLVTQVNQAFAQRLAQPNPGFELPAQCVSKDFPVQAGNRTVGTGRFARDAGDYKGFRISPEQDAMTLAFAAAAIENMQLGKQAQTDIISIGLSATDYVGHTFGTEGTESCIQVDRLDTELGAFFDKLDKDGIDYVVVLTADHGGHDLPERHRMNAMPMEQRVDMALTPKALNATIAEKAGLPGKKVIWSDGPSGDIYYDKGLTAAQRARVETEALKYLRAHPQVQTVFTKAEIAATPSPSGPPESWSLIQEARASFYPSRSGDLLLLLKPRVMSIPEQAVMGSVATHGSPWDTDRRVPILFWRKGMQHFEQPLGVETVDILPSLAALIKLPVPKDQIDGRCLDLVAGKDDSCAGQ
- binding [1]: no binding
- binding [2]: no binding
